# Results are given in words; binding and its absence hold for the method and conditions named. In cells and extracts the contact can be indirect. A yes stands for co-enrichment or nearness to the bait. Other partners may have been found.
# Protein sequences, listed by entry. Tags and fused reporters are not part of them. Residues count along the entry.
# UniProt Q69YL0: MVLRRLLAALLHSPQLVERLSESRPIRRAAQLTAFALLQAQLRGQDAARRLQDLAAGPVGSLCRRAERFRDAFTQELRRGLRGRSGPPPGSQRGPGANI
# UniProt P21796: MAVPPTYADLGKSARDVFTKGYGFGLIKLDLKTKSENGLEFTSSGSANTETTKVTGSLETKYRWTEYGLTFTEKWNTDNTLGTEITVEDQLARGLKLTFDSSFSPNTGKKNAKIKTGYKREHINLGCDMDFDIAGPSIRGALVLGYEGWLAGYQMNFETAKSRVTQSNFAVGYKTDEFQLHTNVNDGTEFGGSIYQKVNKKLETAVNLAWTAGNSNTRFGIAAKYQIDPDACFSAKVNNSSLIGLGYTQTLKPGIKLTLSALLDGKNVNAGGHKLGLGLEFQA
# UniProt P25705, residues 44-553: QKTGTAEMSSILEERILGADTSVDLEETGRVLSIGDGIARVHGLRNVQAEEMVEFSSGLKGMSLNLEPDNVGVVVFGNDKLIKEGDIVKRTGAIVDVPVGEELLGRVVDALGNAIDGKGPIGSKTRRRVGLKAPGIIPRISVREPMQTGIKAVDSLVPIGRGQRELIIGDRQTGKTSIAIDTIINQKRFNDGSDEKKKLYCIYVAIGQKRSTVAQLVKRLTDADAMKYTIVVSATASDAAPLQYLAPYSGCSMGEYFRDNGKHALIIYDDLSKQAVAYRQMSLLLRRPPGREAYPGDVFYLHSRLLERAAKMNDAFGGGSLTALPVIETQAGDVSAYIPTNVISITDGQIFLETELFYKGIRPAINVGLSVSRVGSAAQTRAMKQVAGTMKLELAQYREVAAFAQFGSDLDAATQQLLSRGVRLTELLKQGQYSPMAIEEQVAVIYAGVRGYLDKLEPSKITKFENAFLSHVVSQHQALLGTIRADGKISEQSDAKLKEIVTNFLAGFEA
# Target: FLAG-tagged human NCBP2-AS2 (human) (UniProt Q69YL0)
# Test: affinity purification with mass spectrometry
row,binding,Molecule
1,binds,FLAG-tagged human NCBP2-AS2 (from UniProt Q69YL0 1-99)
2,binds,ATP5B (from UniProt P06576 48-529)
3,binds,VDAC1 (from UniProt P21796 1-283)
4,binds,ATP5A1 (from UniProt P25705 44-553)

# Target: FLAG-tagged human NCBP2-AS2 (human) (UniProt Q69YL0)
# Test: affinity purification with mass spectrometry
# Remark: another data set of the same source
row,Molecule,binding
1,"SLC25A6 (protein, UniProt P12236 1-298) MTEQAISFAKDFLAGGIAAAISKTAVAPIERVKLLLQVQHASKQIAADKQYKGIVDCIVRIPKEQGVLSFWRGNLANVIRYFPTQALNFAFKDKYKQIFLGGVDKHTQFWRYFAGNLASGGAAGATSLCFVYPLDFARTRLAADVGKSGTEREFRGLGDCLVKITKSDGIRGLYQGFSVSVQGIIIYRAAYFGVYDTAKGMLPDPKNTHIVVSWMIAQTVTAVAGVVSYPFDTVRRRMMMQSGRKGADIMYTGTVDCWRKIFRDEGGKAFFKGAWSNVLRGMGGAFVLVLYDELKKVI",binds
2,"C19ORF52 (TIMM29) (protein, UniProt Q9BSF4 32-260) GSWARALLRDYAEACRDASAEARARPGRAAVYVGLLGGAAACFTLAPSEGAFEEALLEASGTLLLLAPATRNRESEAFVQRLLWLRGRGRLRYVNLGLCSLVYEAPFDAQASLYQARCRYLQPRWTDFPGRVLDVGFVGRWWVLGAWMRDCDINDDEFLHLPAHLRVVGPQQLHSETNERLFDEKYKPVVLTDDQVDQALWEEQVLQKEKKDRLALSQAHSLVQAEAPR",binds

# More lines, now with the values ahead:
row,binding,Molecule
1,binds,"TIMM10 (protein, UniProt P62072 1-90) MDPLRAQQLAAELEVEMMADMYNRMTSACHRKCVPPHYKEAELSKGESVCLDRCVSKYLDIHERMGKKLTELSMQDEELMKRVQQSSGPA"
2,binds,"TIMM13 (protein, UniProt Q9Y5L4 1-95) MEGGFGSDFGGSGSGKLDPGLIMEQVKVQIAVANAQELLQRMTDKCFRKCIGKPGGSLDNSEQKCIAMCMDRYMDAWNTVSRAYNSRLQRERANM"
3,binds,"TIMM9 (protein, UniProt Q9Y5J7 1-89) MAAQIPESDQIKQFKEFLGTYNKLTETCFLDCVKDFTTREVKPEETTCSEHCLQKYLKMTQRISMRFQEYHIQQNEALAAKAGLLGQPR"
4,binds,"TIMM10B (protein, UniProt Q9Y5J6 1-103) MERQQQQQQQLRNLRDFLLVYNRMTELCFQRCVPSLHHRALDAEEEACLHSCAGKLIHSNHRLMAAYVQLMPALVQRRIADYEAASAVPGVAAEQPGVSPSGS"

# Source: doi:10.1101/2025.01.25.634884
